Measured data: PubChem BioAssay AID1259405 (NCATS, 2018)
Assay: 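Mouse-designed siRNAs used to find CHO productivity engineering targets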 (primary screen). Cell system: Chinese hamster CHO-K1 ovary cells with stable secreted eGFP expression. Reagent: single siRNA against mouse genes, 0.8 pmol siRNA per well (2 µl of 400 nM stock). Timing: 3 days. Detection: 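Per-well intracellular GFP measured by laser scanning cytometry, plus viability from ATP luminescence, each relative to plate median of non-targeting control wells, in %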. Scale: GFP, % of control: higher = more GFP per well, higher productivity; viability (ATP), % of control: higher = more viable cells (more ATP). Call rule: 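a knock-down is called active if GFP reaches 120% or more of non-targeting control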.
The deposit covers about 50,000 reagents; this is a part drawn at random. About 4,000 of them (8%) count as active. 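Mouse siRNA library applied to hamster cells; one well for each siRNA.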 Reagents against one gene are numbered here. No sequences are given here.

gene symbol,siRNA no.,"GFP, % of control","viability (ATP), % of control",activity call
Sufu (SUFU negative regulator of hedgehog signaling),1,105,59,inactive
Sufu (SUFU negative regulator of hedgehog signaling),2,78.3,79.8,inactive
Tdg (thymine DNA glycosylase),1,107,46.5,inactive
Tdg (thymine DNA glycosylase),2,76.6,86.9,inactive
Tdg (thymine DNA glycosylase),3,86.6,67.1,inactive
"Nuak1 (NUAK family, SNF1-like kinase, 1)",1,102,90.6,inactive
"Nuak1 (NUAK family, SNF1-like kinase, 1)",2,109,102,inactive
"Nuak1 (NUAK family, SNF1-like kinase, 1)",3,85.1,62.1,inactive
Dhrs7c (dehydrogenase/reductase 7C),1,73.8,58.3,inactive
Dhrs7c (dehydrogenase/reductase 7C),2,92.1,61.5,inactive
Dhrs7c (dehydrogenase/reductase 7C),3,77.7,78.1,inactive
Usp50 (ubiquitin specific peptidase 50),1,67.3,91.1,inactive
Usp50 (ubiquitin specific peptidase 50),2,72.6,70.2,inactive
Usp50 (ubiquitin specific peptidase 50),3,57.8,68,inactive
Shisa5 (shisa family member 5),1,61.6,71.7,inactive
Shisa5 (shisa family member 5),2,107,68.4,inactive
Shisa5 (shisa family member 5),3,84.9,74.3,inactive
Enpp2 (ectonucleotide pyrophosphatase/phosphodiesterase 2),1,94,79.8,inactive
Enpp2 (ectonucleotide pyrophosphatase/phosphodiesterase 2),2,83.5,49.5,inactive
Or10j3 (olfactory receptor family 10 subfamily J member 3),1,61.4,74.8,inactive
Or10j3 (olfactory receptor family 10 subfamily J member 3),2,111,96.3,inactive
Or10j3 (olfactory receptor family 10 subfamily J member 3),3,55.8,55.8,inactive
Sclt1 (sodium channel and clathrin linker 1),1,73.7,56.7,inactive
Sclt1 (sodium channel and clathrin linker 1),2,91.2,92.9,inactive
Sclt1 (sodium channel and clathrin linker 1),3,89.1,65,inactive

Reprinted from the listing (6 entries):
gene symbol,siRNA no.,"GFP, % of control","viability (ATP), % of control",activity call
"Nuak1 (NUAK family, SNF1-like kinase, 1)",2,109,102,inactive
"Nuak1 (NUAK family, SNF1-like kinase, 1)",3,85.1,62.1,inactive
Dhrs7c (dehydrogenase/reductase 7C),1,73.8,58.3,inactive
Dhrs7c (dehydrogenase/reductase 7C),2,92.1,61.5,inactive
Dhrs7c (dehydrogenase/reductase 7C),3,77.7,78.1,inactive
Usp50 (ubiquitin specific peptidase 50),1,67.3,91.1,inactive

Additional reagents:
gene symbol,siRNA no.,"GFP, % of control","viability (ATP), % of control",activity call
Sfn (stratifin),1,81.4,94.6,inactive
Sfn (stratifin),2,50.6,59.7,inactive
Sfn (stratifin),3,48.2,47.1,inactive
Bex2 (brain expressed X-linked 2),1,63.5,53.5,inactive
Bex2 (brain expressed X-linked 2),2,62.4,80,inactive
Bex2 (brain expressed X-linked 2),3,118,132,inactive
Krtap13 (keratin associated protein 13),1,66.9,82.9,inactive
Krtap13 (keratin associated protein 13),2,66.3,60,inactive
Krtap13 (keratin associated protein 13),3,112,81.2,inactive
Tmeff1,1,56.8,44,inactive
Tmeff1,2,69.1,48.9,inactive
Tmeff1,3,81.9,69.8,inactive
Lce3f (late cornified envelope 3F),1,112,67.1,inactive
Lce3f (late cornified envelope 3F),2,105,74.3,inactive
Lce3f (late cornified envelope 3F),3,86.9,88.2,inactive
Cd99l2 (CD99 antigen-like 2),1,71.1,73.2,inactive
Cd99l2 (CD99 antigen-like 2),2,44.6,53.8,inactive
Cd99l2 (CD99 antigen-like 2),3,117,107,inactive
Dad1 (defender against cell death 1),1,95.5,84.7,inactive
Dad1 (defender against cell death 1),2,76.4,88.5,inactive
Dad1 (defender against cell death 1),3,40.7,26.9,inactive
Brme1 (break repair meiotic recombinase recruitment factor 1),1,94.9,109,inactive
Brme1 (break repair meiotic recombinase recruitment factor 1),2,174,84.8,active
Brme1 (break repair meiotic recombinase recruitment factor 1),3,48.4,72.3,inactive
Epcam (epithelial cell adhesion molecule),1,80.8,66.8,inactive
Epcam (epithelial cell adhesion molecule),2,60.6,73,inactive
Epcam (epithelial cell adhesion molecule),3,74,69.5,inactive
Vstm5 (V-set and transmembrane domain containing 5),1,47.6,45.2,inactive
Vstm5 (V-set and transmembrane domain containing 5),2,134,99.7,active
Vstm5 (V-set and transmembrane domain containing 5),3,69.9,101,inactive
"Prl7a1 (prolactin family 7, subfamily a, member 1)",1,54.6,70.9,inactive
"Prl7a1 (prolactin family 7, subfamily a, member 1)",2,54.7,101,inactive
"Prl7a1 (prolactin family 7, subfamily a, member 1)",3,39.4,42.3,inactive
